Data as given in PubChem BioAssay AID743454 (Peter MacCallum Cancer Centre, 2014)

- Aim: 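Knock-downs lowering viability or raising caspase 3/7 activity in vorinostat-treated resistant cells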 (primary screen)
- Cell system: human HCT116-VR colon cancer cells, selected for vorinostat resistance
- Knock-down reagent: siRNA pool against human genes, 40 nM siRNA pool
- Duration: vorinostat for 24 h, read-out about 72 h after transfection
- Conditions: vorinostat at 2.5 µM final
- Detection: 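Cell viability by CellTiter-Fluor and caspase 3/7 activity by luminescence, each scaled to mock wells per plate, duplicates averaged, then robust z-scored over all plates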
- Reading the numbers: viability robust z-score: higher = more viable cells than screen typical; caspase robust z-score: higher = more caspase 3/7 activity than screen typical
- Call rule: 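Hits are knock-downs in viability class RV1/RV2 or caspase class CA1/CA2, excluding ones that killed cells in the no-drug cell-count arm; hits then retested with single siRNAs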
This is a random part of about 18,000 reagents tested. Of all reagents, 450 (2.5%) were called active. 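Single biological run; no consistent viability z cut-off exists, so the class columns, not z-scores, define the calls.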 A number with no mark means an inactive call. No sequences are given here.

Target gene | PubChem SID | viability hit class | caspase hit class | viability robust z-score | caspase robust z-score
SEC22A (SEC22 homolog A, vesicle trafficking protein) | SID152150782 | no change | no change | 1.05 | 0.77
HMG20A (high mobility group 20A) | SID134319497 | no change | no change | -0.06 | -0.99
DEFB131A (defensin beta 131A) | SID135625482 | no change | no change | -0.85 | 0.24
CARS1 (cysteinyl-tRNA synthetase 1) | SID152150146 | no change | no change | -0.8 | -0.12
DMGDH (dimethylglycine dehydrogenase) | SID134313051 | no change | no change | 0.27 | 1.27
KREMEN2 (kringle containing transmembrane protein 2) | SID134310108 | no change | no change | -0.88 | 1.08
NOS2 (nitric oxide synthase 2) | SID135621729 | no change | no change | 0.57 | -0.08
PTPN5 (protein tyrosine phosphatase non-receptor type 5) | SID152153920 | no change | no change | -0.53 | -0.47
OR2C1 (olfactory receptor family 2 subfamily C member 1) | SID152153041 | no change | no change | 0.5 | -0.09
ZNF787 (zinc finger protein 787) | SID152154748 | no change | no change | -0.69 | 2.59
VSIG10 (V-set and immunoglobulin domain containing 10) | SID135623973 | no change | no change | -0.55 | -0.8
PHYH (phytanoyl-CoA 2-hydroxylase) | SID135622280 | no change | no change | -0.32 | -0.76
PTCD2 (pentatricopeptide repeat domain 2) | SID152152731 | no change | no change | -1.44 | -0.16
SLC22A24 | SID134312413 | no change | no change | 0.24 | 0.82
ZBTB41 (zinc finger and BTB domain containing 41) | SID152148749 | no change | no change | 1.02 | -0.56
SRSF12 (serine and arginine rich splicing factor 12) | SID152147524 | no change | no change | 0.48 | 0.68
CRIP3 (cysteine rich protein 3) | SID135625053 | no change | no change | -1.01 | 0.92
ZNF665 (zinc finger protein 665) | SID152153693 | no change | no change | -0.71 | -1.23
PHLDA2 (pleckstrin homology like domain family A member 2) | SID135622121 | no change | no change | 0.81 | 1.44
VSIG8 (V-set and immunoglobulin domain containing 8) | SID135624717 | no change | no change | 0.2 | -0.99
WDR27 (WD repeat domain 27) | SID152148576 | no change | no change | -0.04 | 1.22
TOPORS | SID134323793 | no change | no change | 0.08 | 0.18
TBC1D28 (TBC1 domain family member 28) | SID135624348 | no change | no change | -0.66 | 0.22
